Source: publication PMC10728138
Results are given in words; binding and its absence hold for the method and conditions named. For some assays here: Binding seen in cells or lysates may run through a third protein. Some results given as binding are weak or reduced against the parent protein; the word gives no strength.

Protein sequences, listed by entry. Tags and fused reporters are not part of them.
UniProt Q8R4B8: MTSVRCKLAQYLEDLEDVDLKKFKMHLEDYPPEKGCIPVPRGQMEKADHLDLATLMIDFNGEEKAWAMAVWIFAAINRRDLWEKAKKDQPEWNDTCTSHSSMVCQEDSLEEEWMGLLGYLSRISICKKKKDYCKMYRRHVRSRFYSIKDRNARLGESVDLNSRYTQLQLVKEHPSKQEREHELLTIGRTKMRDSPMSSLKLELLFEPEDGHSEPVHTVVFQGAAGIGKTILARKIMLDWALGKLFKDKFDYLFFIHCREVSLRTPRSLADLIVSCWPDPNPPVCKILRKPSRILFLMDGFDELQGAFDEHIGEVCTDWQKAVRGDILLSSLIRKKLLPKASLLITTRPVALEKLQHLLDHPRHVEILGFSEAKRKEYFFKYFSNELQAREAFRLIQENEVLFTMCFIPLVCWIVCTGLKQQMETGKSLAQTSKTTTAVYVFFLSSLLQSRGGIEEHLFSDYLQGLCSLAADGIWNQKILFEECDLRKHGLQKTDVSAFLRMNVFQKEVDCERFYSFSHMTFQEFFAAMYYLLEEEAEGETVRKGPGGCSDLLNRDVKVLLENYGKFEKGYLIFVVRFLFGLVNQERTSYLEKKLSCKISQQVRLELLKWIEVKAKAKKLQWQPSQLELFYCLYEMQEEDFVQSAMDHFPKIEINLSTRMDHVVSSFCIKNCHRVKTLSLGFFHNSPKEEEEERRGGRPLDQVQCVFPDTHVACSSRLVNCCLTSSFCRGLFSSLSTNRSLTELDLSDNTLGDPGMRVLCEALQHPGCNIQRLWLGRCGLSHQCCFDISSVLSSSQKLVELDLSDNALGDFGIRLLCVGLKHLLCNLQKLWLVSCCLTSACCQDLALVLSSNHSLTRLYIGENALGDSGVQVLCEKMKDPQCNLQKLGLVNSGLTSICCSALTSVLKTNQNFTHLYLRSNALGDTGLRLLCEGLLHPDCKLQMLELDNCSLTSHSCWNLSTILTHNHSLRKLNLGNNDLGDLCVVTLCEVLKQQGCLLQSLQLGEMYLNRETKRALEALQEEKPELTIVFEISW
UniProt Q8CHK4: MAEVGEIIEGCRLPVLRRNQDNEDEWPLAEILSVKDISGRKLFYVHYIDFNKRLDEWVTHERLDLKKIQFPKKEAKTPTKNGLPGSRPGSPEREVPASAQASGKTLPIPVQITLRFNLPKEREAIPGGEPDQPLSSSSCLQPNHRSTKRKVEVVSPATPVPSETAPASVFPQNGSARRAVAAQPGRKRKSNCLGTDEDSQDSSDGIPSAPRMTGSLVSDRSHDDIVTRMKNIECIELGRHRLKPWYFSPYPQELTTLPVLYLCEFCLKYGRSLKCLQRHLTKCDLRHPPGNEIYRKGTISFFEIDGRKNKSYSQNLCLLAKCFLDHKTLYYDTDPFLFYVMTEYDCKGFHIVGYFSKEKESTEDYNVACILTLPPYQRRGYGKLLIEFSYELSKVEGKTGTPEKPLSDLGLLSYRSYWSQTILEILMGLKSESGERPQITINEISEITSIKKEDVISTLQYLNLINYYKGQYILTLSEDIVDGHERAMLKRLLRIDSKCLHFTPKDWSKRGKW

How the values were obtained:
[1] = target: endogenous NLRP3 of mouse macrophages (mouse (endogenous in peritoneal macrophages and BMDMs)) (UniProt Q8R4B8); assay: co-IP; endogenous proteins in mouse peritoneal macrophages treated with LPS (100 ng/mL, 3 h) alone or with nigericin (10 μM, 1 h); specific Abs or IgG overnight at 4 °C, protein A/G plus agarose; immunoblot
[2] = target: recombinant murine KAT5-GST (mouse) (UniProt Q8CHK4); assay: pull-down; 2 μg KAT5-GST or GST on Glutathione Sepharose 4B, incubated with 2 μg NLRP3-His for 2 h at 4 °C in 20 mM HEPES pH 7.9, 150 mM NaCl, 0.5 mM EDTA, 1 mM DTT, 10% glycerol, 0.1% Triton-X-100; immunoblot; both purified

Row | Substance | binding [1] | binding [2]
1 | endogenous KAT5 (lysine acetyltransferase 5) of mouse peritoneal macrophages (from UniProt Q8CHK4 1-513) (enzyme) | binds | –
2 | recombinant murine NLRP3-His (from UniProt Q8R4B8 1-1033) | – | binds
